log2 fold change data for 26 targets are collected here from the supplement of paper PMC10849652.

Protein sequences, listed by entry. Tags and fused reporters are not part of them. Lines headed by an entry give the natural chain unless they say otherwise; changes in a name come on top.
UniProt Q8N3C7: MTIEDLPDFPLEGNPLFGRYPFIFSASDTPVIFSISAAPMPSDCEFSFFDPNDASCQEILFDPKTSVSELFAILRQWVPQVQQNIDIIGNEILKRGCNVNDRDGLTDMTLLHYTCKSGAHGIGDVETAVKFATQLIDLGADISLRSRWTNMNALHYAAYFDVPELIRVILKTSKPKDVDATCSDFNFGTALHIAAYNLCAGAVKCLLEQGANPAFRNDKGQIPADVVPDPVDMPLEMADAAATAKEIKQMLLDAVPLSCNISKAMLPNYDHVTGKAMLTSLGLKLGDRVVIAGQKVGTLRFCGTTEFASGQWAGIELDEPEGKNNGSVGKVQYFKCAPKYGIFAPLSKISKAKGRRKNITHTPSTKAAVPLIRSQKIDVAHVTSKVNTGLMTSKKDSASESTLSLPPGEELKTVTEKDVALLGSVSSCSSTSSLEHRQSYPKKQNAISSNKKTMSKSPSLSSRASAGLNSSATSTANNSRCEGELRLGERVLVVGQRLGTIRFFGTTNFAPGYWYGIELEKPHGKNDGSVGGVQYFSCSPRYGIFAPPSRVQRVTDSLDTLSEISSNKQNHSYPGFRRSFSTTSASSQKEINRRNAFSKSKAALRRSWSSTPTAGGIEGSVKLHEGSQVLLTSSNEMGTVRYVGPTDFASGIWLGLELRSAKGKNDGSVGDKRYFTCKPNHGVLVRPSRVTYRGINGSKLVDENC
UniProt Q9UBY8, whole entry, looked up: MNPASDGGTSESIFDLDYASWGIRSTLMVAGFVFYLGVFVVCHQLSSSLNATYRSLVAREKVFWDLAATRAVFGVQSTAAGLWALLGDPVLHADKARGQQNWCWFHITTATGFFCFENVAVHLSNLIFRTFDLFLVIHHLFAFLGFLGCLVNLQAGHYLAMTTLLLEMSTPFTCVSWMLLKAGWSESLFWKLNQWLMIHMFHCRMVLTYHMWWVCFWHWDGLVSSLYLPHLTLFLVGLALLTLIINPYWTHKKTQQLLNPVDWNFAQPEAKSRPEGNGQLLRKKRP
UniProt Q96AJ1: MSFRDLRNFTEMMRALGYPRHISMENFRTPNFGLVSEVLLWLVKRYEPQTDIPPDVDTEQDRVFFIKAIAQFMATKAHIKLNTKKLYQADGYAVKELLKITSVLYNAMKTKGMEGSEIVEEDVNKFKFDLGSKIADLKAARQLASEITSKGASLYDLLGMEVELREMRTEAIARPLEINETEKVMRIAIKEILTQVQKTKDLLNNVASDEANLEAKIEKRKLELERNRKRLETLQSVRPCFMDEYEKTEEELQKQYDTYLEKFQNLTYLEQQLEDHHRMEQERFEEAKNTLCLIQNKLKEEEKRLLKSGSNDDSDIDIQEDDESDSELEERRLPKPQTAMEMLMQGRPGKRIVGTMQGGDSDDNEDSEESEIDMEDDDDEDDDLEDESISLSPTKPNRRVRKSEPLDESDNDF
UniProt P0C7P0: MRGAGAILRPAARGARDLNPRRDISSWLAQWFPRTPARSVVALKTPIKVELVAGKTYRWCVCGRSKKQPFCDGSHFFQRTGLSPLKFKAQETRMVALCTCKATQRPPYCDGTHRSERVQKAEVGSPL
UniProt P62633: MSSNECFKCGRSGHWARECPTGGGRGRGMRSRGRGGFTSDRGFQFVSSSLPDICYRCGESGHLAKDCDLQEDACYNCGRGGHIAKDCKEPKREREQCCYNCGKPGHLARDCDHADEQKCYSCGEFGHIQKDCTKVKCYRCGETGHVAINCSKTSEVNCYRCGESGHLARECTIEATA
UniProt Q9UDT6: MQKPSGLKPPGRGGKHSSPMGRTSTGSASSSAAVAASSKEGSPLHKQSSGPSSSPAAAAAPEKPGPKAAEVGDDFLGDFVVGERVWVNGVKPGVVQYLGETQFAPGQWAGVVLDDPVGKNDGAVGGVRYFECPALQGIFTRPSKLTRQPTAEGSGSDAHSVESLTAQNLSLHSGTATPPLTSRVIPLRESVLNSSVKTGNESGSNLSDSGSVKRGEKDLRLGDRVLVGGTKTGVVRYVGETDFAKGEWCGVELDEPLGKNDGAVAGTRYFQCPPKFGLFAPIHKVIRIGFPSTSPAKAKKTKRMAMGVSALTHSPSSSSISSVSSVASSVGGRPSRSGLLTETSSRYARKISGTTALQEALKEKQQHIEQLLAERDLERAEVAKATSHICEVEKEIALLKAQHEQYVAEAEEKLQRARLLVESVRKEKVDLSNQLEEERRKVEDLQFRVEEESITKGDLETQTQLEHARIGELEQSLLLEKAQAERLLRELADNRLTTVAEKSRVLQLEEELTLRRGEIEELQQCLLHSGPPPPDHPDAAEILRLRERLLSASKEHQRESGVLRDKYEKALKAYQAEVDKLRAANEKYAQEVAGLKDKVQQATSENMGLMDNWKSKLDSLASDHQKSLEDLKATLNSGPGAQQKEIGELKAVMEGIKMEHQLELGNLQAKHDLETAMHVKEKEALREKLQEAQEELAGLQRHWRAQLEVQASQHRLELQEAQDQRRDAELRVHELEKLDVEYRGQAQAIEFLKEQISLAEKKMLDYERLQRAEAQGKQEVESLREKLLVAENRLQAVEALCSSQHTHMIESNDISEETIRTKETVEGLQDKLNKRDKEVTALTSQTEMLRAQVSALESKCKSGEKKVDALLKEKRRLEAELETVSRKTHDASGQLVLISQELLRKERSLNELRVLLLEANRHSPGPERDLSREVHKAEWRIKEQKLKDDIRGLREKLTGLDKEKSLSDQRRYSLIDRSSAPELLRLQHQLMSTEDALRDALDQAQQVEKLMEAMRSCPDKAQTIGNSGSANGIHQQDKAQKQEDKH
UniProt Q8IZR5: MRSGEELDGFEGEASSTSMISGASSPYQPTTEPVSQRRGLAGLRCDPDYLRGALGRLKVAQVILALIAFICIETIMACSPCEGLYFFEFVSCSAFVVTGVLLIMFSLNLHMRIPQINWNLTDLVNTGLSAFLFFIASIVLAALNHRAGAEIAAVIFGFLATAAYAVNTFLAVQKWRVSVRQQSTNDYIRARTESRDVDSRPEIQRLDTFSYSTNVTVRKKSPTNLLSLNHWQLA
UniProt Q14677: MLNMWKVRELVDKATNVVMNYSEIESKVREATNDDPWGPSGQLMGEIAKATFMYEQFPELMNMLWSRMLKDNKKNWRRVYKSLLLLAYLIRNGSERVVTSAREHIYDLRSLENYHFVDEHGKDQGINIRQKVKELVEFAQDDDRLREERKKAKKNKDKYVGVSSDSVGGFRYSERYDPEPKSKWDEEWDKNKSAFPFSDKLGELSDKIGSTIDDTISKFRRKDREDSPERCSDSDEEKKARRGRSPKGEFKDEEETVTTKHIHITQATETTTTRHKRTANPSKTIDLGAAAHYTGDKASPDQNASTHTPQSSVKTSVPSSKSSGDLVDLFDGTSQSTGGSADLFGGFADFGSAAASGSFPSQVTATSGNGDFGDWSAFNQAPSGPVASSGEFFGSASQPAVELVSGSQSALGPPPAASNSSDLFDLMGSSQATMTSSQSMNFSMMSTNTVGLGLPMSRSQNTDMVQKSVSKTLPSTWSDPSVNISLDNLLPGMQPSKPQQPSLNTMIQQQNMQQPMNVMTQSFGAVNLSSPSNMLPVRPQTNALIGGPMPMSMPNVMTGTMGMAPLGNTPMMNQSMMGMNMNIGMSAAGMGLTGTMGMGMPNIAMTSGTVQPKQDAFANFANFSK
UniProt O75503: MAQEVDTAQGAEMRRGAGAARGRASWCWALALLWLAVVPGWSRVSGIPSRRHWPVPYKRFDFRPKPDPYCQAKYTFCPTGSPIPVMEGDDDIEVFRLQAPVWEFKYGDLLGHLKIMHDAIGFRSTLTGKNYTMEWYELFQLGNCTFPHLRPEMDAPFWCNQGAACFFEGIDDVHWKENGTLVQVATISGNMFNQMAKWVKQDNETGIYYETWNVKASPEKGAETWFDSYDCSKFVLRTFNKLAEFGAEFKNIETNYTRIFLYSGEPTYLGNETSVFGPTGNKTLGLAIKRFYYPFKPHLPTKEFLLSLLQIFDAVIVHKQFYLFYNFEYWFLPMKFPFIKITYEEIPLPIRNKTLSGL
UniProt P51797: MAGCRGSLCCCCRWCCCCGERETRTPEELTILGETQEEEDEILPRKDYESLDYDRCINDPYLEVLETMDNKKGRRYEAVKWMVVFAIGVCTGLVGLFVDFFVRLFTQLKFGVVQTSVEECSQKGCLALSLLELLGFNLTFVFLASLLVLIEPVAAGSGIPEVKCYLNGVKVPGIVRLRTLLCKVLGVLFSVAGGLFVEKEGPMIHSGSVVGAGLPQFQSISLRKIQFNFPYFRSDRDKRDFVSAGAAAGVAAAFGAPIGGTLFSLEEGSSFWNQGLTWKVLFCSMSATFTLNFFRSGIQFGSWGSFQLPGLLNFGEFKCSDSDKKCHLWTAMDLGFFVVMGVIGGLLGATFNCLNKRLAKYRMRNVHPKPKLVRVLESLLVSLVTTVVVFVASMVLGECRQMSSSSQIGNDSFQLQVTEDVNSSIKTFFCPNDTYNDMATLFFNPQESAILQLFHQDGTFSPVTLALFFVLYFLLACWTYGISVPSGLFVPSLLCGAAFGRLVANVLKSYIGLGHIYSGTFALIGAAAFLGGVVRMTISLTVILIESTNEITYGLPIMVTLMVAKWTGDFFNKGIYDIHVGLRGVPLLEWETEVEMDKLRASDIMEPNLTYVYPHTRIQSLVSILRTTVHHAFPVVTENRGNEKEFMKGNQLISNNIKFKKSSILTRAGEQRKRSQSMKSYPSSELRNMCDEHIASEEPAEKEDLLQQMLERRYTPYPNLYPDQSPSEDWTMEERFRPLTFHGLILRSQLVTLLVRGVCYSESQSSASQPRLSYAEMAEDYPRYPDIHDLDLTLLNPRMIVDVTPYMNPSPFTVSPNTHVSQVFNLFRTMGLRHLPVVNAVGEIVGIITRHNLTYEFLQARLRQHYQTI
UniProt Q2KHT3: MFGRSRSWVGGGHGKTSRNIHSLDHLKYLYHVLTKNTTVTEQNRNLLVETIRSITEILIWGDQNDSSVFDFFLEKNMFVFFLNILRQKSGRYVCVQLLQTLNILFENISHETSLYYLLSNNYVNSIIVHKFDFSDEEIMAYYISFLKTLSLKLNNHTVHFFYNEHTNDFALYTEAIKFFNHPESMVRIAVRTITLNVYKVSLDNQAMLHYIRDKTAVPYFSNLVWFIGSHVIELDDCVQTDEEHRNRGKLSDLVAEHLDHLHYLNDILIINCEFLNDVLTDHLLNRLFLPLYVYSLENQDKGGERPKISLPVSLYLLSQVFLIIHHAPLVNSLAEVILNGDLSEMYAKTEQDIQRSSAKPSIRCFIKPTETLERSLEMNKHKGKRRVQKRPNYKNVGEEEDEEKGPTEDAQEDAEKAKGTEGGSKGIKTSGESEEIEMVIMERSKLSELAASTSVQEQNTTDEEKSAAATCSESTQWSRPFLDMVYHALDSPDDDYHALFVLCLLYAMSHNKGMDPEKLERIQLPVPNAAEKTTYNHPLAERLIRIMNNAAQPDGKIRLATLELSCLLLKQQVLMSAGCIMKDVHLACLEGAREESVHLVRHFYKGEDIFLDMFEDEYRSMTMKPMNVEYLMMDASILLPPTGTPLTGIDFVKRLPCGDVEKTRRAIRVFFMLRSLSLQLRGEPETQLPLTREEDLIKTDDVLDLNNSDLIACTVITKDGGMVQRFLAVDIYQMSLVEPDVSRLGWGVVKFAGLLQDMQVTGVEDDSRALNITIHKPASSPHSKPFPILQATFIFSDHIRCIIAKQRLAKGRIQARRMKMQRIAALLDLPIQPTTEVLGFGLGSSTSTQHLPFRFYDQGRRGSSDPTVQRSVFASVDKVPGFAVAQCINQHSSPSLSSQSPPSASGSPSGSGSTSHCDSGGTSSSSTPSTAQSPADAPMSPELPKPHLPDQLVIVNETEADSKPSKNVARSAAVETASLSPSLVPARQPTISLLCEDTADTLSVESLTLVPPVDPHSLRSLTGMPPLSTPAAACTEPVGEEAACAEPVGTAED
UniProt Q9NX76: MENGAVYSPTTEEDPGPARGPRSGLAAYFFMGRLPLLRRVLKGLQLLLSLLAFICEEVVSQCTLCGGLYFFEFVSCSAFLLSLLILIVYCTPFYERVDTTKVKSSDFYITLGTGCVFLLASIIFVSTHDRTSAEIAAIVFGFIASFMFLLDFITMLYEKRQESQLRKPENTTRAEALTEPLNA
UniProt P0CG13, whole entry, looked up: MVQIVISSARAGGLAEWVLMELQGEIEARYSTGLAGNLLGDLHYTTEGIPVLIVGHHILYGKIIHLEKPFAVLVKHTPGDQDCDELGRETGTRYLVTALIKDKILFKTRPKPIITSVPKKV
UniProt P56749: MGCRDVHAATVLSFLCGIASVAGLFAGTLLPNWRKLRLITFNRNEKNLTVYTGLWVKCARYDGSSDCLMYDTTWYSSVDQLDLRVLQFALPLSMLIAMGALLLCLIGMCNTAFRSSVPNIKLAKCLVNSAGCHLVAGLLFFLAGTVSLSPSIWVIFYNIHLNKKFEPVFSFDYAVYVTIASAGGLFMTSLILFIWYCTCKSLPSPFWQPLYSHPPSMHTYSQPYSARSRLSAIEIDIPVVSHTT

This is one part of the list.

Compound in this experiment: CC1=CC=C(C=C1)SC2=C3C=C(SC3=CN=C2)C(=O)N
Put plainly: log2 fold change, soluble protein after heating vs DMSO (PISA); higher = thermal stabilisation; K562 lysate, 10 uM; active = over 0.2 and 3.5 SD of the protein, either way, in both replicates (recomputed). An outline of the steps:
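Log-two fold change in thermal stability relative to solvent controls is reported from duplicates. For each sample, crude K562 extract from dounce-homogenised pellets in PBS pH 7.4 with 1 mM MgCl2, at 1 mg/mL protein, was treated with 10 μM compound for 30 min. Aliquots heated for 3 min across 48°C-58°C were pooled, brought to 0.5% NP-40 at 4°C and cleared at 21,000xg for 90 min. The supernatant was quantified by TMTpro 16plex LC-MS/MS with channel sums equalised.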
As for CLIP4 (UniProt Q8N3C7), the log2 fold change was inactive: -0.014.

In the case of CLN8 (UniProt Q9UBY8), the log2 fold change was inactive: 0.079.

Turning to CLUAP1 (UniProt Q96AJ1), the log2 fold change is inactive: -0.137.

As for CISD3 (UniProt P0C7P0), the log2 fold change was inactive: -0.052.

Turning to CLCN2 (UniProt P51788), the log2 fold change was inactive: -0.189.

Regarding CLUAP1 (UniProt I3L2E1), the log2 fold change is inactive: -0.215.

CLTA (UniProt P09496): the log2 fold change was inactive: 0.011.

For CLK3 (UniProt P49761), the log2 fold change is inactive: 0.081.

CLIP1 isoform 2 (UniProt P30622): the log2 fold change is inactive: -0.088.

For the target CLTC (UniProt Q00610), the log2 fold change is inactive: 0.026.

As to CHSY1 (UniProt Q86X52), the log2 fold change was inactive: -0.157.

Regarding CNBP (UniProt P62633), the log2 fold change was inactive: 0.049.

As to CLIP2 (UniProt Q9UDT6), the log2 fold change is inactive: -0.025.

As for CMTM4 (UniProt Q8IZR5), the log2 fold change was inactive: 0.

For the target CLIC6 (UniProt Q96NY7), the log2 fold change was inactive: -0.047.

Take CLINT1 isoform 3 (UniProt Q14677): the log2 fold change is inactive: -0.028.

Consider CLK1 isoform 3 (UniProt P49759), for which the log2 fold change is inactive: 0.071.

As to CHFR (UniProt Q96EP1), the log2 fold change is inactive: 0.102.

Turning to CLN3 (UniProt Q13286), the log2 fold change was inactive: -0.01.

In the case of CLN5 (UniProt O75503), the log2 fold change was inactive: 0.051.

On to CLCN6 isoform 5 (UniProt P51797), for which the log2 fold change is inactive: -0.034.

Take CLEC16A isoform 2 (UniProt Q2KHT3): the log2 fold change is inactive: 0.066.

Regarding CMTM6 (UniProt Q9NX76), the log2 fold change is inactive: 0.086.

In the case of CHEK2 (UniProt O96017), the log2 fold change was inactive: 0.013.

Regarding CHTF8 (UniProt P0CG13), the log2 fold change was inactive: 0.096.

For the target CLDN12 (UniProt P56749), the log2 fold change was inactive: -0.157.
